Patent US20060051359A1
Results are given in words; binding and its absence hold for the method and conditions named. Some results given as binding are weak or reduced against the parent protein; the word gives no strength.

Assays:
[1] = target: T1, 8H9 antigen (human) (UniProt Q5ZPR3); experiment: 8H9 reactivity by FACS on LAN-1 cells
T1 sequence (looked up): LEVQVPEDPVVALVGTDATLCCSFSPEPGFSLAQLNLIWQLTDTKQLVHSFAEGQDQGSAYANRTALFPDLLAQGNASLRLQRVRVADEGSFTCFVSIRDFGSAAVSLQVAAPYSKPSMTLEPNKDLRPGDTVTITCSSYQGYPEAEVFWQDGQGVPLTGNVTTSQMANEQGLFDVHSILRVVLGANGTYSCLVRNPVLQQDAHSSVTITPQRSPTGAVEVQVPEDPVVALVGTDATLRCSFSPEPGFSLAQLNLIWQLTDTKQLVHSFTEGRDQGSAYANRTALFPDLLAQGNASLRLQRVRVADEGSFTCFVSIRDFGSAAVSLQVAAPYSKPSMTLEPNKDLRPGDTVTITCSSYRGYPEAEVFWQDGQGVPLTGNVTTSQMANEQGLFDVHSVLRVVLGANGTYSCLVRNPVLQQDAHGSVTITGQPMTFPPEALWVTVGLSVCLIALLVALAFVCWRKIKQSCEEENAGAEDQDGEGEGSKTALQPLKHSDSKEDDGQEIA

[2] = target: T1, 8H9 antigen (human); experiment: reactivity with MCF-7 cells (FACS, Table 2)
[3] = target: T1, 8H9 antigen (human); experiment: 8H9 reactivity by FACS on CRL1427 (MG63) cells
[4] = target: T1, 8H9 antigen (human); experiment: 8H9 reactivity by FACS on BT-474 cells
[5] = target: T1, 8H9 antigen (human); experiment: 8H9 reactivity by FACS on OHS-M1 cells
[6] = target: T1, 8H9 antigen (human); experiment: 8H9 reactivity by FACS on ZR-75-1 cells
[7] = target: T1, 8H9 antigen (human); experiment: reactivity with breast cancer and osteosarcoma cell lines (FACS, Table 2)
[8] = target: T1, 8H9 antigen (human); experiment: 8H9 reactivity by FACS on MCF-7 cells
[9] = target: T1, 8H9 antigen (human); experiment: 8H9 reactivity by FACS on NMB-7 cells
[10] = target: T1, 8H9 antigen (human); experiment: 8H9 reactivity by FACS on SK-N-BE(2) cells
[11] = target: T1, 8H9 antigen (human); experiment: 8H9 reactivity by FACS on U2OS cells

Measured: binding

B1: monoclonal antibody 8H9 (antibody, V domains shown)
VH: QVQLQQSGAELVKPGASVKLSCKASGYTFTNYDINWVRQRPEQGLEWIGWIFPGDGSTQYNEKFKGKATLTTDTSSSTAYMQLSRLTSEDSAVYFCARQTTATWFAYWGQGTTVTVSS
VL: DIELTQSPTTLSVTPGDRVSLSCRASQSISDYLHWYQQKSHESPRLLIKYASQSISGIPSRFSGSGSGSDFTLSINSVEPEDVGVYYCQNGHSFPLTFGGGTKLELK
binds: [1] | [2] | [3] | [4] | [5] | [6] | [7] | [8] | [9] | [10] | [11]
